Sequences of proteins named here, by UniProt entry; tags and fusion partners are left off.
UniProt P18054, whole entry, looked up: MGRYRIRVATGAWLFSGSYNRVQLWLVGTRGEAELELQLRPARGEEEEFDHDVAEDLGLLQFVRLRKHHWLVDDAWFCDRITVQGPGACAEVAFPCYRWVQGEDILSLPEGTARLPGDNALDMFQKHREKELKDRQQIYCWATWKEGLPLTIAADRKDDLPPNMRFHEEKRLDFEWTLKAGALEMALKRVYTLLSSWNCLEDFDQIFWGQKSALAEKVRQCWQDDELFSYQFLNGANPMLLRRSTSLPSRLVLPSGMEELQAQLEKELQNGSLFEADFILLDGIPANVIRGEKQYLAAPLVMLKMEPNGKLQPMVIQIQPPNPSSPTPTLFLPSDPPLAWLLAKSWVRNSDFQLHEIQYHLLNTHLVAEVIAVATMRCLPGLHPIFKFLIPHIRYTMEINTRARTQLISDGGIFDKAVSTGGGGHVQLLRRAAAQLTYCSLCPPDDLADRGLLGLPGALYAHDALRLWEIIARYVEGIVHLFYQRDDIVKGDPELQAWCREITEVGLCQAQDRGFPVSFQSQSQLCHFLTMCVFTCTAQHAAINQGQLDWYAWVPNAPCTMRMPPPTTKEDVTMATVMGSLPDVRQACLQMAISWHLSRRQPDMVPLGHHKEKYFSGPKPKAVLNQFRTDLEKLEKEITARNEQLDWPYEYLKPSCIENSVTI

In all, about 580,000 compounds went through this assay and about 6,100 (1.1%) were called active. Inconclusive results, whose numbers are uncertain, are shown with a selection of clear calls. Calls follow the shape of the dose curve; as a rule, active = well fitted inhibition curve with a large enough effect; inconclusive = small, poorly fitted or top-dose-only effect, or another doubt; inactive = no such curve, though single readings can be large or run the other way. Potencies of inconclusive entries are doubtful fits and often do not repeat.
What follows are molecules tested against Polyunsaturated fatty acid lipoxygenase ALOX12 (Homo sapiens) (UniProt P18054) (assay: Primary qHTS assay for inhibitors of human arachidonate 12S-lipoxygenase (ALOX12): Round 2). Conditions: purified 12hLO, xylenol orange hydroperoxide absorbance; activity change, negative = inhibition: at 108 µM (top of the series) unless noted.
Method in brief: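 Purified human 12hLO (150 nM final) in 25 mM Hepes, 0.01% Triton X-100, pH 7.0 was preincubated 15 min at room temperature with compound. Then 40 uM arachidonic acid was added, 30 min. Hydroperoxide was read by Fe-XO absorbance ratio 573/405 nm.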
For `Cn1c(=O)c2[nH]c(CCCCCCCCc3nc4ccccc4[nH]3)nc2n(C)c1=O`, the Potency was inconclusive: 14.1 µM [inhibitor, full curve]. With `COc1ccc(-n2ccc(=O)c(C(=O)Nc3ccc(S(=O)(=O)Nc4nccs4)cc3)n2)cc1` the Potency was inconclusive: 89.1 µM [inhibitor, single point]. With `O=C1NCc2ccccc2CC12CCN(Cc1ccc(Cl)cc1)CC2` the Potency was inconclusive: 39.8 µM [inhibitor, full curve, poor fit]. In the case of `O/N=C1\CCCc2ccc3ccccc3c21`, the Potency is reported as inconclusive: 31.6 µM [inhibitor, partial curve, poor fit]. `O=C(NC1CCCc2c1[nH]c1ccccc21)c1ccco1` (stereo unspecified) was tested, and the Potency was inconclusive: 50.1 µM [inhibitor, single point]. With `COCCNc1nc(-c2ccccc2C)nc2ccccc12` the Potency was inconclusive: 25.1 µM [inhibitor, partial curve, poor fit]. With `NC1=NC[C@H](Cc2ccccc2)N1CCc1cccc(F)c1` the Potency was inconclusive: 100 µM [inhibitor, single point]. For `COc1ccc(-c2c3c(=O)n(C)c(=O)n(C)c3c3c(-c4cccc(C)c4)nc4ccccc4n23)cc1`, the “activity change, negative = inhibition” value was inactive: -18.1%. For `COc1ccc(-c2csc3nc(-c4cccnc4)nc(N4CCC(C(N)=O)CC4)c23)cc1OC`, the Potency was inconclusive: 112 µM [inhibitor, partial curve, poor fit]. In the case of `COC(=O)Cn1cnc2c(sc3nc(C4CCCCC4)c4c(c32)CCC4)c1=O`, the Potency is reported as inconclusive: 100 µM [inhibitor, single point]. With `CC1CCc2c(sc3nc(C4CC4)nc(N4CCN(C(=O)c5ccco5)CC4)c23)C1` (stereo unspecified) the Potency was inconclusive: 89.1 µM [inhibitor, partial curve, poor fit]. In the case of `CC(C)OCCCNC(=O)c1cc(-c2cccs2)nc2ccccc12`, the Potency is reported as inconclusive: 44.7 µM [inhibitor, partial curve, poor fit]. For `O=c1oc2cc(O)ccc2cc1-c1nc2c(s1)CCc1ccccc1-2`, the Potency was inconclusive: 39.8 µM [inhibitor, partial curve, poor fit]. With `C=CCc1cccc(C=NNC(=O)CN2CCN(Cc3ccccc3)CC2)c1O` the Potency was inconclusive: 8.63 µM [inhibitor, partial curve]. In the case of `COc1ccc(C(=O)N2CCCC(CCC(=O)NCc3ccc(F)c(F)c3)C2)o1` (stereo unspecified), the “activity change, negative = inhibition” value is reported as inactive: -16.6%. For `CCn1cnc2cc(NCc3ccc(Br)cc3)ccc21`, the “activity change, negative = inhibition” value was inactive: 235%. For `C=CCn1c(-c2ccccc2)n[nH]c1=S`, the Potency was inconclusive: 89.1 µM [inhibitor, partial curve, poor fit]. `COc1ccc(C2=Nc3ccccc3N(C(=O)c3ccc(C)cc3)C2C(=O)Nc2c(C)cccc2C)cc1` (stereo unspecified) was tested, and the Potency was active: 0.794 µM. With `CCOc1ccccc1OCCN1CCCC1` the Potency was inconclusive: 1.26 µM [inhibitor, full curve]. `CN(C)[C@H]1CN(C(=O)c2cccc(NCc3ccc(F)cc3)c2)C[C@@H]1O` was tested, and the “activity change, negative = inhibition” value was inactive: 57.5%. In the case of `COc1ccc(S(=O)(=O)NCCCO)cc1-c1nnc2c3ccccc3c(C)nn12`, the Potency is reported as inconclusive: 50.1 µM [inhibitor, partial curve, poor fit]. `O=C(Cn1nnc(-c2ccc(Cl)cc2)n1)NC1CCN(Cc2ccccc2)CC1` was tested, and the Potency was inconclusive: 63.1 µM [inhibitor, partial curve, poor fit]. With `C=CCCCCCCCCC(=O)NCc1ccco1` the Potency was inconclusive: 22.4 µM [inhibitor, partial curve, poor fit]. With `O=C1NC[C@H](Cc2ccccc2)N(CC2CCN(CCCC3CCCC3)CC2)C1=O` the “activity change, negative = inhibition” value was inactive: -29.6%. In the case of `Cn1c(N2CCC(Cc3ccccc3)CC2)nc2c1c(=O)n(Cc1ccc(Cl)cc1)c(=O)n2C`, the Potency is reported as inconclusive: 50.1 µM [inhibitor, partial curve, poor fit]. For `Cc1sc(NC(=O)CSc2n[nH]c(N)n2)c(C#N)c1C`, the Potency was inconclusive: 39.8 µM [inhibitor, partial curve, poor fit]. For `COc1cc(Br)c(CC(=O)Oc2c(C)cccc2C)cc1OC`, the Potency was inconclusive: 0.316 µM [inhibitor, full curve, poor fit]. For `CCCCC(NC(=O)C(c1ccccc1)C1CCCC1)c1ccccc1` (stereo unspecified), the “activity change, negative = inhibition” value was inactive: 7.85%. For `COc1cc(C(=S)N2CCN(CCO)CC2)ccc1OCc1ccc(C)cc1`, the Potency was inconclusive: 44.7 µM [inhibitor, single point]. For `Brc1cccc(-c2nc(-c3ccncc3)no2)c1`, the “activity change, negative = inhibition” value was inactive: 0%. `Cc1cnc2c(S(=O)(=O)N(CC(C)C)C3CC3)cccc2c1` was tested, and the “activity change, negative = inhibition” value was inactive: 13.4%. With `CCCS(=O)(=O)N1CCN(Cc2ccccc2C(F)(F)F)CC1` the Potency was inconclusive: 0.708 µM [inhibitor, full curve, poor fit]. With `CCn1c(CCNC(=O)c2ccc(C)cc2)n[nH]c1=S` the “activity change, negative = inhibition” value was inactive: -9.6%. In the case of `O=C(O)/C(=C/C=C\c1ccccc1)NC(=O)c1ccc(Br)o1`, the Potency is reported as inconclusive: 44.7 µM [inhibitor, single point]. With `CC(=O)Oc1ccc(C(=O)[C@H]2[C@H]3C(=O)N(c4ccc(C)cc4C)C(=O)[C@H]3[C@@H]3C=CC=NN32)cc1` the Potency was inconclusive: 50.1 µM [inhibitor, single point]. For `COc1ccc(S(=O)(=O)NCC(=O)NCCc2ccc(OC)c(OC)c2)cc1`, the Potency was inconclusive: 112 µM [inhibitor, single point]. `CCC1OC(C)Cc2[nH][nH]c(=O)c21` (stereo unspecified) was tested, and the Potency was inconclusive: 31.6 µM [inhibitor, single point]. In the case of `COc1ccc(C(=O)CCS(=O)(=O)c2ccc(F)cc2)cc1OC`, the Potency is reported as inconclusive: 0.562 µM [inhibitor, partial curve, poor fit]. In the case of `C=CCOC(=O)C1=C[C@@H](c2cn(C(C)=O)c3ccccc23)C[C@@H](OCc2ccc(CO)cc2)O1`, the Potency is reported as inconclusive: 44.7 µM [inhibitor, partial curve, poor fit]. With `CC(C)NC(=O)/C(C#N)=C\c1ccc(N(C)C)o1` the Potency was inconclusive: 44.7 µM [inhibitor, partial curve]. For `Cc1noc([C@@H]2CN(C(=O)c3occc3C)C[C@H]2COCC2CC2)n1`, the Potency was inconclusive: 31.6 µM [inhibitor, full curve].
% is scaled to controls: 0 for no effect and ±100 for the full control effect; potency is read from the fitted curve at half-maximal effect.
